In publication PMC4019850:
No constants are given. Whether binding was seen depends on the method and setting. In cells and extracts the contact can be indirect. These calls come from enrichment with a bait or labelling near it, and not all partners need be listed. For some of these results: Where a sequence is shown, tags or fusion partners need not be part of it.

Amino acid sequences for entries named in this document (tags omitted). Residues count along the entry.
UniProt P26045: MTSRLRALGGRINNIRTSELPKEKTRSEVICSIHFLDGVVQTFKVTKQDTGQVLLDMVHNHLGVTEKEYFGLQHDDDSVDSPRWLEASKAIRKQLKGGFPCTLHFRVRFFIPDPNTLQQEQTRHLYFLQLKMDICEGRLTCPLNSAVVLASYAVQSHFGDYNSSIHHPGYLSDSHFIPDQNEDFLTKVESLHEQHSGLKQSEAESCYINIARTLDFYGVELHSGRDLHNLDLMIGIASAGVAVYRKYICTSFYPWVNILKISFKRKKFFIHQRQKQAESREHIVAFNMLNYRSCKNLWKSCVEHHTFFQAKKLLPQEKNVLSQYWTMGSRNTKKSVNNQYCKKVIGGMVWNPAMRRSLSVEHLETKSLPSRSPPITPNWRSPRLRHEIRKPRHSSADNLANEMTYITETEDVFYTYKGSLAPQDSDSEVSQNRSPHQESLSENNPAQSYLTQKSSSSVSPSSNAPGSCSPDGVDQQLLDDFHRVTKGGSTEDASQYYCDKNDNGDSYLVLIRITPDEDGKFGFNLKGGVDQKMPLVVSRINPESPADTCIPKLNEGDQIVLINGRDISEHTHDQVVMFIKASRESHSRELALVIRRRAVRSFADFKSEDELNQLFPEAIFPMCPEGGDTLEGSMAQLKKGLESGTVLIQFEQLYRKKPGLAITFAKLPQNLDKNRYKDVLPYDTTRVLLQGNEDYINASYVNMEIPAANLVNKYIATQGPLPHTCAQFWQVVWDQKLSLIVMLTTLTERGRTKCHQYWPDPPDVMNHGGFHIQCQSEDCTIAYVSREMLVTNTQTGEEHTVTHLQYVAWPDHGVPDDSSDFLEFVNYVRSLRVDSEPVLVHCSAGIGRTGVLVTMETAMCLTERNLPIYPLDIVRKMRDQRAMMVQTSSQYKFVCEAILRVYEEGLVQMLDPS
UniProt Q9UBS4, residues 23-358: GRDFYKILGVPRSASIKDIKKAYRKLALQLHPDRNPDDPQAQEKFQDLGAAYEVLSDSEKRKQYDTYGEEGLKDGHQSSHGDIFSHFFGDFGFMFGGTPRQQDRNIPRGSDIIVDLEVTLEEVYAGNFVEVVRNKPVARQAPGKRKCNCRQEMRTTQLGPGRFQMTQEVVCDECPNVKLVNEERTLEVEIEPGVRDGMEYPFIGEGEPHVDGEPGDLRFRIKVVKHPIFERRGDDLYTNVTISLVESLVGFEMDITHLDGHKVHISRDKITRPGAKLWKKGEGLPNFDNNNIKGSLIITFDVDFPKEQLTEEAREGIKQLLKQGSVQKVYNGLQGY
UniProt O00411, residues 42-1230: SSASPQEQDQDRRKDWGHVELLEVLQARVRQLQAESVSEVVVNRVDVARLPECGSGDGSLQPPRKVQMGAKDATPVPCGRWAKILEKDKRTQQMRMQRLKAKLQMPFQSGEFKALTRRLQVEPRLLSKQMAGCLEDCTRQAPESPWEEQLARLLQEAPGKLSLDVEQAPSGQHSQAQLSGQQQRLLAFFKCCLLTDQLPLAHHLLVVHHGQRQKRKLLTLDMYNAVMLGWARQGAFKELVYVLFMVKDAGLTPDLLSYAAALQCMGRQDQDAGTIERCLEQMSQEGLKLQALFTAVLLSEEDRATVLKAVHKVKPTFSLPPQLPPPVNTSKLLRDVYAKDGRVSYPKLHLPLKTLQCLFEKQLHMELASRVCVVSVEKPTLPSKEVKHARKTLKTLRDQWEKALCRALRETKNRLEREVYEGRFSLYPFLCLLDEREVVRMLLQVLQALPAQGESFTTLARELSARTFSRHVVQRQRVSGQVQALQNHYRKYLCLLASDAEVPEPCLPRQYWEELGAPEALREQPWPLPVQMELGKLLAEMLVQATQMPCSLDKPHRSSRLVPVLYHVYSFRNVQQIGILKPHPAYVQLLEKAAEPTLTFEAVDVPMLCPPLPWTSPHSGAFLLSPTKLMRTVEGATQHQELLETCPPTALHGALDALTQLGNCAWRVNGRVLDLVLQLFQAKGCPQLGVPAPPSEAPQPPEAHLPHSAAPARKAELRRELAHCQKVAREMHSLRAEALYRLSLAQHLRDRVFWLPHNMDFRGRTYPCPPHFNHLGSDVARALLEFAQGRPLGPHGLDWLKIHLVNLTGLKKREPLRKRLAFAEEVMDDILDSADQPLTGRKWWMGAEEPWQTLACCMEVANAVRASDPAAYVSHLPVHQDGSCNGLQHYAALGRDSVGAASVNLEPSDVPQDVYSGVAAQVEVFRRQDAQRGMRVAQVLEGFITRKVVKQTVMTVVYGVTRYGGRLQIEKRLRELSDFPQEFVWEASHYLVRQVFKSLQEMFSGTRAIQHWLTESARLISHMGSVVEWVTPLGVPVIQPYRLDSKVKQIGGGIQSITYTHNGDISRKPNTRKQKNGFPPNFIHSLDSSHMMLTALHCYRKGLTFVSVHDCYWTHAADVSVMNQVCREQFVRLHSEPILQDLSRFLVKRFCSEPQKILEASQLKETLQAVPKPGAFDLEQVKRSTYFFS
UniProt Q14160: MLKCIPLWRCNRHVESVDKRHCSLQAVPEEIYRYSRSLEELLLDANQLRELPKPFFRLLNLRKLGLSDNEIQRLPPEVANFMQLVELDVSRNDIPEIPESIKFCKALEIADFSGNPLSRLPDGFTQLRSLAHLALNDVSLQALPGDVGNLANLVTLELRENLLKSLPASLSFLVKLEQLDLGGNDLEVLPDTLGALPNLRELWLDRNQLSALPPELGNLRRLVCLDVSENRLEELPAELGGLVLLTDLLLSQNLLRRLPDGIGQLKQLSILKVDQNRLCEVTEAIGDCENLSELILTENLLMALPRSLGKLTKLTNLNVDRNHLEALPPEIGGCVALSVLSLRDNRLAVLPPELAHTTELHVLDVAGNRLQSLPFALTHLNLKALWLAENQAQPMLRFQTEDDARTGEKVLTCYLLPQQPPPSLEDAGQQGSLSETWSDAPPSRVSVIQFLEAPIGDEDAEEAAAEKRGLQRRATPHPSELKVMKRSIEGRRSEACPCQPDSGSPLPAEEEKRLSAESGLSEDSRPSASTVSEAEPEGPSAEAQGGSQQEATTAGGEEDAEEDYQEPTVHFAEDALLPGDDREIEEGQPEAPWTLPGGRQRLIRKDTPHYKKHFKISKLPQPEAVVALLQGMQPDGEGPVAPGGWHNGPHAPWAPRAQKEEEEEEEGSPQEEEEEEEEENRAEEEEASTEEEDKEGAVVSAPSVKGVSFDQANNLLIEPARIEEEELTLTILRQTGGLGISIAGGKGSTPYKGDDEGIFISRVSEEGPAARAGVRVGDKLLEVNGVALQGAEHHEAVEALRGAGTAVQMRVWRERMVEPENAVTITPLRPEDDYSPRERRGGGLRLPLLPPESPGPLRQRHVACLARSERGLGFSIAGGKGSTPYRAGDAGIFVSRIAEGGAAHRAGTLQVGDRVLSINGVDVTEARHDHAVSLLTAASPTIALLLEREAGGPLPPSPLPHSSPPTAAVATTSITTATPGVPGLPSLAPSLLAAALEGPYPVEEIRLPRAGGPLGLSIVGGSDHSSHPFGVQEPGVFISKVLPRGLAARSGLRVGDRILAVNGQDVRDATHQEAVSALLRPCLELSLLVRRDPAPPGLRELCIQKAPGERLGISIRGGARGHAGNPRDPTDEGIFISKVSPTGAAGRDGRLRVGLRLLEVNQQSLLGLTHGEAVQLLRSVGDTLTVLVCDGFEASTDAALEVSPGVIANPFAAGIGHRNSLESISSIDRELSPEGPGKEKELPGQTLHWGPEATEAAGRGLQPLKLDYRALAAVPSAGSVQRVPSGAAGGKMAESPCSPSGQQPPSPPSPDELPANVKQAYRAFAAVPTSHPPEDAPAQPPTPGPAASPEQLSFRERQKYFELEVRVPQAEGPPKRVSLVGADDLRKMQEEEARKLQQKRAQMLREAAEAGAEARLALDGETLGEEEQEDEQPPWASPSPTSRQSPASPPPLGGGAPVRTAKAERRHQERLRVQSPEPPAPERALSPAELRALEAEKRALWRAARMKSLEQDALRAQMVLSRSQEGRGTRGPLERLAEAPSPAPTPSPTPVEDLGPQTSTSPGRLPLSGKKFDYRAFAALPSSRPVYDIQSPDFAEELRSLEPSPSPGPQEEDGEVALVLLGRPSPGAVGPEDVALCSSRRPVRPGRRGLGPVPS
UniProt Q9Y4R8: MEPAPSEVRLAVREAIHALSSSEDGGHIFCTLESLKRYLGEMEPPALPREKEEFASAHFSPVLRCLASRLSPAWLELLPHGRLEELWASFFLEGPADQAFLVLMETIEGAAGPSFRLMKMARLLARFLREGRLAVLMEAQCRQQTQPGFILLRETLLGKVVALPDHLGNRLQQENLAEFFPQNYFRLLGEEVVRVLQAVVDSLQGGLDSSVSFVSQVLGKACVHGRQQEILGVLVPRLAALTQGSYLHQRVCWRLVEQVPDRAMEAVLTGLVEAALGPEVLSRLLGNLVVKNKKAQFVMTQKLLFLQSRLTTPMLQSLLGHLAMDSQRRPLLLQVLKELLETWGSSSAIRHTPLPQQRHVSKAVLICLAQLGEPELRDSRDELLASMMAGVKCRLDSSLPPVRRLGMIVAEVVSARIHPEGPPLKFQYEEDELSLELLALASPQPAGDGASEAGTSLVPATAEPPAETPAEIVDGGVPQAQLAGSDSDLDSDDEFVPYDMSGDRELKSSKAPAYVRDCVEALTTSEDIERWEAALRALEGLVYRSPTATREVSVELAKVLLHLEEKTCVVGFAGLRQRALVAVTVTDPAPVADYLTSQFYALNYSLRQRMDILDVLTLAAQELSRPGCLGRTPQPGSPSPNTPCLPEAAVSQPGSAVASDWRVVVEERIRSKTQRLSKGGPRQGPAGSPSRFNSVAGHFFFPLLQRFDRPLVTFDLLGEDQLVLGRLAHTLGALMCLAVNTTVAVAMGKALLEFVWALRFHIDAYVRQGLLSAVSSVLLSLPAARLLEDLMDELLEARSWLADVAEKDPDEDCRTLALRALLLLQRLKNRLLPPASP
UniProt P62993: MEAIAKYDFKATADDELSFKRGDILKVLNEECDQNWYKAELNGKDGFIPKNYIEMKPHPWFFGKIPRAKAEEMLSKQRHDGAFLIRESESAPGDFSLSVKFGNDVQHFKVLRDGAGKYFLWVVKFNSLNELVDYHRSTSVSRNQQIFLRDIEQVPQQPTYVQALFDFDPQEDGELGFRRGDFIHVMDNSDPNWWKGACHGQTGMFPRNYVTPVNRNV
UniProt P63167: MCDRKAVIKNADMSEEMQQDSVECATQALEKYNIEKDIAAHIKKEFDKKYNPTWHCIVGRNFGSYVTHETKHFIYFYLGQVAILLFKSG

Legend:
Test in all cases: affinity purification with mass spectrometry; SF-TAP tagged phosphatase subunit transiently expressed in HeLa, with or without 50 ng/ml TNFα (10 min), SILAC; one step Strep purification on Strep-Tactin-Superflow beads; control SF-TAP alone; LC-MS/MS
[1] = biological target: T1, SF-TAP-tagged PTPN21 (human) (UniProt Q16825)
T1 sequence: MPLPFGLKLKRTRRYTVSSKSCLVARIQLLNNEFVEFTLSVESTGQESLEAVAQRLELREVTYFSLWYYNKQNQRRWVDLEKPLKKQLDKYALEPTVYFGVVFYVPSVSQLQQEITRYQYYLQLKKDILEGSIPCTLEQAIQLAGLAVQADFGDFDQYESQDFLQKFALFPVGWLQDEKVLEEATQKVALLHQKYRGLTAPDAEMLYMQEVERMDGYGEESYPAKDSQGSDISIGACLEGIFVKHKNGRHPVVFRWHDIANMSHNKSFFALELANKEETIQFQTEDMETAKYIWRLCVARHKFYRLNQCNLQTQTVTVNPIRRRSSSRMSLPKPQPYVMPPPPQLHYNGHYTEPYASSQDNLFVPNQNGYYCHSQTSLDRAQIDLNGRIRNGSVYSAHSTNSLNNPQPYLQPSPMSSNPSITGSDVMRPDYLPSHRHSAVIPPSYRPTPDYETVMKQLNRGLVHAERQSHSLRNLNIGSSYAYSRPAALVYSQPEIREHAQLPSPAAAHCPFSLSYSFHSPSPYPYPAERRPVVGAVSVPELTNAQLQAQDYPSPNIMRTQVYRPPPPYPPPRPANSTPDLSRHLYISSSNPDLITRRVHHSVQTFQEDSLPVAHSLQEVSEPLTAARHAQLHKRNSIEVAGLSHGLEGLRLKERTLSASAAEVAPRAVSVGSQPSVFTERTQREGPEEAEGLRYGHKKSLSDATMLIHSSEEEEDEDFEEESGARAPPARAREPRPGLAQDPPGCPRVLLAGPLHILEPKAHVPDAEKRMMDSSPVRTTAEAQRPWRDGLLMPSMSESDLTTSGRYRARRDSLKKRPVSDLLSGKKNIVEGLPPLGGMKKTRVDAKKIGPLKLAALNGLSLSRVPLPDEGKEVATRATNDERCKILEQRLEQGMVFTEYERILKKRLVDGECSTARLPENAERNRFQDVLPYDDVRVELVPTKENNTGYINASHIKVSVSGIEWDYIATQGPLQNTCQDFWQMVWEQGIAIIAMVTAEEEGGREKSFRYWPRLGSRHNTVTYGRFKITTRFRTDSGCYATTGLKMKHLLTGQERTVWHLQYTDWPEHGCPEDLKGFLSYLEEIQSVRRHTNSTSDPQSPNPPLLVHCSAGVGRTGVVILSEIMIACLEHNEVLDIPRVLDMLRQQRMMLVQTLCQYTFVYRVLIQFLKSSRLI

[2] = biological target: SF-TAP-tagged PTPN3 (human) (UniProt P26045)
[3] = biological target: T2, SF-TAP-tagged DUSP26 (human) (UniProt Q9BV47)
T2 sequence: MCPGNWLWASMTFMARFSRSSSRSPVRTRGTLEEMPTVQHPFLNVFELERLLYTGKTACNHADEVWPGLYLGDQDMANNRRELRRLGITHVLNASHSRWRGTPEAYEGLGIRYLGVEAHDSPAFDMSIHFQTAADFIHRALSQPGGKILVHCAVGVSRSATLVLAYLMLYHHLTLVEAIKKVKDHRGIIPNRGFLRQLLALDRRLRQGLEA

[4] = biological target: SF-TAP-tagged PPP2CA (PP2A catalytic subunit) (human) (UniProt P67775)
[5] = biological target: T3, SF-TAP-tagged DUSP18 (human) (UniProt Q8NEJ0)
T3 sequence: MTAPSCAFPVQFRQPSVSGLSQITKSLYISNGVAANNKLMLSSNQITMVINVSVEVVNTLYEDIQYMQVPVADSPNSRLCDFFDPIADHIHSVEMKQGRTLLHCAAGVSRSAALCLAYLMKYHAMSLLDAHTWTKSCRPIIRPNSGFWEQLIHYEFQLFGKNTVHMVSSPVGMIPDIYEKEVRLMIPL

In the case of DNAJB11 (from UniProt Q9UBS4 23-358), the binding [1] is reported as “binds”.

In the case of POLRMT1 (from UniProt O00411 42-1230), the binding [2] is reported as “binds”.

With “SCRIB (endogenous) (from UniProt Q14160 1-1655)” the binding [3] was “binds”.

SQSTM (from UniProt Q13501 1-440) was tested, and the binding [4] was “binds”.

TELO2 (from UniProt Q9Y4R8 1-837) was tested, and the binding [3] was “binds”.

In the case of UBR (human (endogenous in HeLa)), the binding [1] is reported as “binds”.

In the case of “scaffold protein GRB2 (from UniProt P62993 1-217)”, the binding [1] is reported as “binds”.

For “the dynein protein, DLC1 (from UniProt P63167 1-89)”, the binding [4] was “binds” and the binding [1] was “binds”.

B1: catalase (enzyme, UniProt P04040 1-527)
chain: MADSRDPASDQMQHWKEQRAAQKADVLTTGAGNPVGDKLNVITVGPRGPLLVQDVVFTDEMAHFDRERIPERVVHAKGAGAFGYFEVTHDITKYSKAKVFEHIGKKTPIAVRFSTVAGESGSADTVRDPRGFAVKFYTEDGNWDLVGNNTPIFFIRDPILFPSFIHSQKRNPQTHLKDPDMVWDFWSLRPESLHQVSFLFSDRGIPDGHRHMNGYGSHTFKLVNANGEAVYCKFHYKTDQGIKNLSVEDAARLSQEDPDYGIRDLFNAIATGKYPSWTFYIQVMTFNQAETFPFNPFDLTKVWPHKDYPLIPVGKLVLNRNPVNYFAEVEQIAFDPSNMPPGIEASPDKMLQGRLFAYPDTHRHRLGPNYLHIPVNCPYRARVANYQRDGPMCMQDNQGGAPNYYPNSFGAPEQQPSALEHSIQYSGEVRRFNTANDDNVTQVRAFYVNVLNEEQRKRLCENIAGHLKDAQIFIQKKAVKNFTEVHPDYGSHIQALLDKYNAEKPKNAIHTFVQSGSHLAAREKANL
For B1, the binding [5] was “binds”.
